# Results taken from patent US20050250853A1, “Beta-tubulin inhibitors” (priority 1999, published 2005).
# Some results were stated once for a whole list of compounds, not compound by compound. At least one compound was matched to its structure with a doubt left. Some compounds share one range, which may span the group rather than tell each member.
# Experiment: Kinetics of alkylation of 4-(4-nitrobenzyl)pyridine (colorimetric assay)
# Format: physicochemical
# Settings: approximate range given for active and inactive CEU
# Method: The rate constant of alkylation (K′) of CEU derivatives and chlorambucil was evaluated by a […] assay as described by Bardos et al (13). Briefly, 1 ml of a 10% (v/v) solution of 4-(4-nitrobenzyl)pyridine in ethanol and 1 ml of 50 mM sodium acetate (pH 4.3) were added to an ethanol solution (95%) containing 400 nmol per ml of either chlorambucil or CEU and heated to 80° C. in a shaking water bath for 60, 90, 120 or 150 min. The reaction was stopped by cooling the mixtures on ice for 5 min. Then, 1.5 ml of 0.1 M KOH: ethanol (1:2, v/v) were added to the reaction mixture. Samples were vortexed for 12 sec and set aside for 2.5 min prior to reading the absorbance at 570 nm. The values were compared with those obtained using a blank sample containing all reagents except the alkylating agent.
row,Structure (SMILES),K′ values as stated in text
1,"CCc1ccccc1NC(=O)NCCCl [Example 2-ECEU, 2-ethyl[3-(2-chloroethyl)ureido]benzene]",2.5 to 3.5 µM
2,"CC(C)c1ccc(NC(=O)NCCCl)cc1 [Example 4-iPCEU, 4-iso-propyl[3-(2-chloroethyl)ureido]benzene]",2.5 to 3.5 µM
3,"CCC(C)c1ccc(NC(=O)NCCCl)cc1 (stereo not shown) [Example 4-sBCEU, 4-sec-butyl[3-(2-chloroethyl)ureido]benzene]",2.5 to 3.5 µM
4,"CC(C)(C)c1ccc(NC(=O)NCCCl)cc1 [Example 4-tBCEU, 4-tert-butyl[3-(2-chloroethyl)ureido]benzene]",2.5 to 3.5 µM
